Test results: the supplement of paper PMC12823440, “Inhibitors supercharge kinase turnover through native proteolytic circuits” (Nature, 2025)
The other results are listed elsewhere or left out. The calls rarely recur for the same compound in another form.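 Kinases, fused to nanoluciferase, were expressed in K562 cells; luminescence was measured every 4 h from 2 to 18 h as percent of control (DMSO = 100%, positive control = 0%). A time point is decreased if signal falls significantly (2 sigma). Hits were called by the authors by a rule that is not shown; the count of time points alone does not decide it.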

biological target: EGFR_L858R (UniProt P00533); experiment: number of time points (of 5) at which kinase-Nluc abundance scored as decreased, DMSO-normalised (count); higher = more persistent destabilization; details: K562; 2-18 h

Structure (SMILES) | number of time points
COc1cc(S(C)(=O)=O)ccc1Nc1nc2ccc(-c3ccc(NC(=O)[C@H](C)c4ccc(F)cc4)cc3)cn2n1 [Empesertib] (10 µM) | 0
CO[C@H]1C[C@@H]2CC[C@@H](C)[C@@](O)(O2)C(=O)C(=O)N2CCCC[C@H]2C(=O)O[C@H]([C@H](C)C[C@@H]2CC[C@@H](O)[C@H](OC)C2)CC(=O)[C@H](C)/C=C(\C)[C@@H](O)[C@@H](OC)C(=O)[C@H](C)C[C@H](C)/C=C/C=C/C=C/1C [Rapamycin] (10 µM) | 0
COc1ccc(Cl)cc1NC(=O)Nc1cc(C)nc2ccccc12 (2.5 µM) | 0
CNc1nc(Nc2cnn(C3CCN(C4COC4)CC3F)c2Cl)ncc1C(F)(F)F (stereo not given) (10 µM) | 0
Cc1ccc2nc(NC(=O)CSc3nc4c(c(=O)n3-c3ccccc3)SCC4)sc2c1 (2 µM) | 0
Cc1noc(C)c1-c1ccc(-c2cc(C(N)=O)c(NC(N)=O)s2)c(O[C@H]2CCNC2)c1 (10 µM) | 0
Fc1ccc(-c2nc(-c3c(F)cccc3F)[nH]c2-c2ccncc2)cc1 (10 µM) | 0
C=CC(=O)Nc1ccc(CN(C(=O)Nc2c(Cl)c(OC)cc(OC)c2Cl)c2cc(Nc3ccc(N4CCN(C)CC4)cc3)ncn2)cc1 (10 µM) | 0
CCN(CC)c1ccc2cc(C(=O)N3CCN(C(=O)C4=Cc5c(Br)cccc5S4(=O)=O)CC3)c(=O)oc2c1 (2 µM) | 0
CN1CCN(c2ccc(Nc3ncc4nc(Nc5ccccc5)n([C@@H]5CCN(S(=O)(=O)C6CC6)C5)c4n3)cc2)CC1 (2.5 µM) | 0

An excerpt taken from the entries so far, as a working copy:
Structure (SMILES) | number of time points
CO[C@H]1C[C@@H]2CC[C@@H](C)[C@@](O)(O2)C(=O)C(=O)N2CCCC[C@H]2C(=O)O[C@H]([C@H](C)C[C@@H]2CC[C@@H](O)[C@H](OC)C2)CC(=O)[C@H](C)/C=C(\C)[C@@H](O)[C@@H](OC)C(=O)[C@H](C)C[C@H](C)/C=C/C=C/C=C/1C [Rapamycin] (10 µM) | 0
COc1ccc(Cl)cc1NC(=O)Nc1cc(C)nc2ccccc12 (2.5 µM) | 0
